Source: EP0978565B1, “PROCESS FOR PRODUCING PEPTIDE WITH THE USE OF ACCESSORY PEPTIDE” (Asubio Pharma Co., Ltd., priority 1998, dated 2007)
Not every detail of the peptide structures is certain; ends, links or a residue may be inferred.

Experiment: screening of substances having aggregation suppression (turbidity, absorbance at 660 nm, with time)
Assay type: physicochemical
Details: pH 6.5

CC[C@H](C)[C@H](NC(=O)[C@H](Cc1ccccc1)NC(=O)[C@H](CCC(=O)O)NC(=O)[C@H](CCCCN)NC(=O)[C@H](C)NC(=O)[C@H](C)NC(=O)[C@H](CCC(N)=O)NC(=O)CNC(=O)[C@H](CCC(=O)O)NC(=O)[C@H](CC(C)C)NC(=O)[C@H](Cc1ccc(O)cc1)NC(=O)[C@H](CO)NC(=O)[C@H](CO)NC(=O)[C@@H](NC(=O)[C@H](CC(=O)O)NC(=O)[C@H](CO)NC(=O)[C@@H](NC(=O)[C@H](Cc1ccccc1)NC(=O)[C@@H](NC(=O)CNC(=O)[C@H](CCC(=O)O)NC(=O)[C@H](C)NC(=O)[C@@H](N)Cc1c[nH]cn1)[C@@H](C)O)[C@@H](C)O)C(C)C)C(=O)N[C@@H](C)C(=O)N[C@@H](Cc1c[nH]c2ccccc12)C(=O)N[C@@H](CC(C)C)C(=O)N[C@H](C(=O)N[C@@H](CCCCN)C(=O)NCC(=O)N[C@@H](CCCNC(=N)N)C(N)=O)C(C)C [GLP-1(7-36)NH2]
Tween 80 concentration that suppresses aggregation (Figure 23B): ≥ 0.3%
NaCl concentration that suppresses aggregation (Figure 24C): ≥ 100 mM
temperature that suppresses aggregation (Figure 24D, result in words): low temperature
